This is an account of results in PubChem BioAssay AID2685 (National Center for Advancing Translational Sciences (NCATS), 2010).

The experiment can be described thus: qHTS Assay for Lipid Storage Modulators in Drosophila S3 Cells.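 For cell number change: cells counted by Cell Tracker Red CMTPX staining in the red channel.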 The following applies: BODIPY lipid droplet fluorescence, 18-24 h; for cell number change: measured here: cell count max response, cells fed with added oleic acid. The essentials: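 Laser-scanning cytometry quantifies lipid droplet accumulation (500–530 nm total intensity; droplet/cell object ratio) in oleic acid-fed (400 uM added) Drosophila S3 cells treated with a concentration series. 20 uM Triacsin C defined 100% inhibition.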

The mark [1] stands for this setting: measured here: cell number channel AC50, cells fed with added oleic acid.
[2] abbreviates: measured here: lipid fluorescence (Fed channel) AC50, cells fed with added oleic acid.

In general, AC50 refers to the midpoint of the concentration-response curve, whichever way the signal moves. A higher AC50 goes with activity only at high concentration.

The list shows a part of the results. These are further read-outs of the screen, such as a control signal, another cell line or another target. No call is given for them. Most of these compounds were active or inconclusive in the main read-out, so they are no random draw. Words in brackets tell the shape of the fitted curve; partial curves, single points and poor fits give uncertain potencies.

`C=C(C)COc1ccc(-c2nc(N)nc(C)c2Oc2ccccc2OC)c(O)c1`: the cell number change was -21%. In the case of `Cc1nc([N+](=O)[O-])cn1CC(O)c1ccc(F)cc1` (stereo not given), the cell number change is -40.2%. For the same compound, under setting [1], the half-maximal activity concentration (AC50) is 8.2 µM [falling, partial curve]. Besides, under setting [2], the AC50 was 20.6 µM [falling, single point].

For `CCc1nnc(SCC(=O)Nc2ccccc2)n1CC1CCCO1` (stereo not given), the cell number change was -8.22%. Further, the AC50 under setting [2] is 29.1 µM [rising, partial curve, poor fit]. In the case of `O=C(COc1ncnc2cc([N+](=O)[O-])ccc12)N(CCc1ccccc1)Cc1ccccc1`, the cell number change came out at 28.1%.

As to `O=C1C(=O)N(CCN2CCOCC2)C(c2ccccn2)/C1=C(/O)c1ccc(F)cc1` (stereo not given), the cell number change was found to be 2.59%.

In the case of `COc1ccc(OC)c(-c2nc(C(=O)NC3CCN(Cc4ccccc4)CC3)cc3c2[nH]c2ccccc23)c1`, the cell number change was 9.37%. Turning to `CCN(C(=O)CN1CCN(c2ccc(O)cc2)CC1)c1c(N)n(Cc2ccccc2)c(=O)[nH]c1=O`, the cell number change was -1.55%. Moreover, the AC50 under setting [2] was 0.184 µM [rising, full curve, poor fit]. Turning to `COc1ccc(CC(=O)Nc2c3c(nn2C(C)(C)C)CS(=O)C3)cc1` (stereo not given), the cell number change was determined as 13.3%. For the same compound, under setting [2], the AC50 is 23.1 µM [rising, single point]. For `CCN1CCN(c2ccc(S(=O)(=O)N3CCCCC3)cc2NC(=O)COc2ccc(Cl)c(C)c2)CC1`, the cell number change stood at 23%. The AC50 under setting [2] is 6.51 µM [rising, single point]. `CCn1c(C(=O)N2CCC(C(=O)NCCCSC3CCCCC3)CC2)cc2sccc21`: the cell number change is -48.2%. Also, the AC50 under setting [1] was 29.1 µM [falling, partial curve]. Further, the AC50 under setting [2] was 25.9 µM [falling, partial curve]. Turning to `Cc1cc(C(=O)CC#N)c(C)n1-c1c(C)n(C)n(-c2ccccc2)c1=O`, the cell number change was found to be 59.9%. In addition, under setting [1], the AC50 was 29.1 µM [rising, single point]. Under setting [2], the AC50 was 29.1 µM [rising, single point]. As for `CC1(C)Oc2ccc3ccc(=O)oc3c2/C(=C/O)C1=O`, the cell number change was -2.75%. Also, the AC50 under setting [2] is 23.1 µM [rising, single point]. In the case of `Cc1cc(C)c[n+](CC(=O)c2ccccc2)c1`, the cell number change amounted to 18.9%. For the same compound, the AC50 under setting [2] was 29.1 µM [rising, single point]. For the compound `Cc1nc(N)nc(N/N=C/c2ccccc2)n1`, the cell number change is 1.52%. The concentration at half-maximal activity (AC50) under setting [2] is 0.0206 µM [rising, full curve, poor fit]. For the compound `CC1(C)CN(c2ccc(Br)cc2Br)C1=O`, the cell number change is -23.2%. For the compound `Cc1cc(Cl)ccc1NC(=S)NCCCO`, the cell number change was 26.4%. In addition, the AC50 under setting [1] is 0.116 µM [rising, full curve, poor fit]. Further, the AC50 under setting [2] was 29.1 µM [rising, partial curve, poor fit].

For the compound `O=C(Cc1ccc2c(c1)OCCO2)N1CCN(S(=O)(=O)c2cccc(Cl)c2Cl)CC1`, the cell number change is 8.52%. On the same count and under the same terms, the same measure for `OCCN(CC#CC(O)(c1ccccc1)c1ccccc1)CCO`: 24.4%; for `COc1ccccc1-c1cn[nH]c1-c1ccc(O)cc1O`: -22.7%.

Turning to `CCOc1ccc(C(=O)O)cn1`, the cell number change is -14.1%. For the same compound, under setting [2], the AC50 was 14.6 µM [falling, single point]. For `O=C(COc1cccnc1[N+](=O)[O-])Nc1ccc(N2CCOCC2)cc1`, the cell number change was -27.4%. For the same compound, the AC50 under setting [2] is 6.51 µM [falling, single point]. For `O=c1oc(-c2cccs2)nc2sc3c(c12)CCCC3`, the cell number change turned out to be 16.7%. Also, the AC50 under setting [2] is 0.82 µM [falling, single point]. As for `CCCCNc1ccc(C(CC(N)=O)NC(=O)Cc2ccc(Br)cc2)cc1[N+](=O)[O-]` (stereo not given), the cell number change is -7.16%. Under setting [2], the AC50 is 0.58 µM [falling, full curve, poor fit]. As for `Cn1c(CCNC(=O)c2cccs2)nnc1SCC(=O)N1CCN(c2ccccc2)CC1`, the cell number change is -11.7%. The same measure, in the same setting: the same measure for `CCC(CC)NCc1ccc(OC)cc1OC`: -63.7%. As for `CC1(C)C(=O)OC(c2ccccc2)C(C)(C)C1=O` (stereo not given), the cell number change is -10.6%. Besides, the AC50 under setting [2] is 0.651 µM [falling, partial curve, poor fit]. As for `COCCCNC(=O)c1ccc2nc3ccccc3c(=O)n2c1`, the concentration at half-maximal activity (AC50) under setting [1] was 4.11 µM [rising, single point] and the AC50 under setting [2] is 3.26 µM [rising, partial curve].

On to `N#Cc1ccccc1S(=O)(=O)N1CCN(C(=O)c2cc(-c3ccccc3)nn2-c2ccccc2)CC1`, for which, under setting [2], the AC50 was 29.1 µM [falling, single point]. Regarding `C=Cn1cc[n+](CC(=O)c2ccc(Cl)c(Cl)c2)c1`, the cell number change was found to be 10.9%. Further, the AC50 under setting [2] was 6.51 µM [rising, partial curve]. `O=C(Nc1ccc2nn(-c3ccccc3)nc2c1)c1ccc(Br)o1`: under setting [1], the AC50 is 2.31 µM [rising, partial curve]. For the compound `COc1cc(C(=O)Nc2cccc(-n3cnnn3)c2)cc(Cl)c1OC`, the AC50 under setting [2] is 8.2 µM [falling, partial curve]. For the compound `Nc1c(-c2n[nH]c(=S)n2-c2ccc(Cl)cc2Cl)cnn1-c1ccccc1`, the cell number change is 51.4%. For the same compound, the AC50 under setting [1] was 4.61 µM [rising, full curve, poor fit]. Consider `O=C(c1cc(F)ccc1F)N1CCC(N2CCC(C(=O)N3CCCC3)CC2)CC1`, for which the cell number change is 17.2%. Also, the AC50 under setting [2] was 0.58 µM [rising, single point]. For `COc1ccc(CCNC(=O)Cn2nnc(-c3ccc(N(C)C)cc3)n2)cc1OC`, the cell number change is -76.5%. For the same compound, under setting [1], the half-maximal activity concentration (AC50) is 5.8 µM [falling, partial curve]. In addition, under setting [2], the half-maximal activity concentration (AC50) is 3.66 µM [falling, full curve]. For `CCC(C)(C(=O)NC1CCCCC1)N(C(=O)C1CCC(=O)N1)c1ccc(C)cc1` (stereo not given), the cell number change was -5.61%. Turning to `Cc1cc(SCC(=O)Nc2cccc(S(=O)(=O)N3CCOCC3)c2)nc2ccccc12`, the cell number change was found to be 8.85%. In addition, the AC50 under setting [2] was 0.92 µM [rising, single point]. For `CCOc1ccc(OCC(=O)Nc2nccs2)cc1`, the cell number change is -45.2%. Also, the half-maximal activity concentration (AC50) under setting [1] is 1.84 µM [falling, partial curve]. Also, under setting [2], the AC50 was 2.91 µM [falling, partial curve]. With `CN(C(=O)COC(=O)c1ccc(S(=O)(=O)N2CCOCC2)cc1)C1CCCCC1`, the cell number change is 17.5%. Moreover, the AC50 under setting [2] is 0.231 µM [rising, full curve]. As to `CCOCCCNC(=O)Cn1cc2c(n1)CCCCC2`, the cell number change is -49.9%. In addition, the AC50 under setting [1] was 20.6 µM [falling, partial curve, poor fit]. Further, the AC50 under setting [2] is 25.9 µM [falling, partial curve, poor fit]. Consider `CC(=O)c1c(C)[nH]c(C(=O)OCC(=O)Nc2ccc(Cl)cc2[N+](=O)[O-])c1C`, for which the cell number change was -32.1%. For the same compound, the AC50 under setting [1] was 16.4 µM [falling, single point]. Moreover, the half-maximal activity concentration (AC50) under setting [2] was 8.2 µM [falling, partial curve]. As to `COC(=O)c1sc(NC(=O)c2cccc([N+](=O)[O-])c2)c(C(N)=O)c1C`, the cell number change came to 19.6%. The AC50 under setting [2] was 3.66 µM [rising, partial curve, poor fit]. In the case of `CCCCN(CCCC)c1ccc(C(=O)c2ccccc2C(=O)O)c(O)c1`, the cell number change is -20.3%. Besides, the AC50 under setting [2] was 8.2 µM [falling, partial curve]. `O=C(COC(=O)c1ccc(S(=O)(=O)Nc2ccccc2)cc1)NCc1ccco1`: the cell number change is -40.3%. The concentration at half-maximal activity (AC50) under setting [1] was 9.2 µM [falling, partial curve]. For `CCN1CCN(C(=O)CN(CC)S(=O)(=O)c2ccc3ccccc3c2)CC1`, the cell number change came to 1.72%. The AC50 under setting [2] was 6.51 µM [rising, single point]. With `CC1CC(C)CN(C(=O)c2ccc3c(c2)N(Cc2ccccc2)CCS3)C1` (stereo not given), the cell number change is -1.11%. The half-maximal activity concentration (AC50) under setting [2] was 6.51 µM [rising, single point]. Regarding `CN(C)S(=O)(=O)c1ccc(C(=O)NCCN=C2NS(=O)(=O)c3ccccc32)cc1`, the cell number change amounted to 14.4%. For the compound `Cc1cccc(Cn2cnc3c(NS(C)(=O)=O)c(C)c(C)cc32)c1`, the cell number change was 97.2%. Turning to `CCCCN=C(Nc1ccc(Cl)cc1)c1cccnc1`, the cell number change came out at 96.2%. The half-maximal activity concentration (AC50) under setting [1] is 18.4 µM [rising, partial curve, poor fit]. Under setting [2], the AC50 is 23.1 µM [rising, partial curve]. As for `CCCCc1cc2c(c(NC(C)=O)n1)c(=O)oc1ccccc12`, the cell number change worked out at 0.854%.

Take `O=c1ccc(-c2ccccc2)no1`: the cell number change stood at 9.96%. Moreover, the AC50 under setting [2] was 0.517 µM [falling, single point]. Regarding `COc1ccc(NS(=O)(=O)c2ccc3oc(=O)c4[nH]c(=O)c(=O)n(C)c4c3c2)cc1`, the cell number change is -10.2%. In the case of `COc1ccc2cc3cc(C(=O)N4CCN(Cc5ccc6c(c5)OCO6)CC4)oc3nc2c1`, the cell number change was -15.3%. Moreover, under setting [2], the AC50 was 0.0651 µM [falling, full curve, poor fit]. `CS(=O)(=O)N1CCC(C(=O)Nc2ccccc2)CC1`: the cell number change was 18%. The AC50 under setting [2] is 29.1 µM [falling, single point]. With `N#C/C(C(=O)NCc1ccco1)=C1/SC(Cc2ccc(F)cc2)C(=O)N1c1ccccc1` (stereo not given), the AC50 by setting is: under setting [1], 3.26 µM [rising, single point]; under setting [2], 3.66 µM [rising, partial curve]. On to `CCCCOC(=O)c1nc[nH]c1C(=O)OCCCC`, for which the cell number change was found to be 133%. Also, the AC50 under setting [1] was 29.1 µM [rising, single point]. Also, the AC50 under setting [2] was 29.1 µM [rising, single point].

With `CCOC(=O)c1ccc(NS(=O)(=O)c2ccc(SC)cc2)cc1`, the cell number change was -64.1%. The AC50 under setting [1] is 16.4 µM [falling, partial curve]. The AC50 under setting [2] is 0.651 µM [falling, full curve, poor fit]. `COCC(=O)N1CCN(c2cccc(C(F)(F)F)c2)CC1`: the AC50 under setting [1] was 2.06 µM [rising, partial curve, poor fit]. `CCOC(=O)c1cn(Cc2c(C)c(C)c(C)c(C)c2C)nn1`: the cell number change was -31.4%. The AC50 under setting [1] was 2.06 µM [falling, full curve, poor fit]. For the same compound, the AC50 under setting [2] was 5.8 µM [falling, partial curve, poor fit]. On to `Cc1ccc(C)n1-c1ccc(C#N)cn1`, for which the cell number change is -33.3%. For the same compound, the AC50 under setting [1] was 18.4 µM [falling, single point]. Moreover, the half-maximal activity concentration (AC50) under setting [2] was 18.4 µM [falling, single point]. Take `O=Cc1cn(CCOc2ccccc2F)c2ccccc12`: the AC50 under setting [2] was 2.91 µM [falling, single point]. As for `NC(=O)C1CCN(c2nc(-c3ccc4ccccc4c3)cs2)CC1`, the cell number change was determined as 3.73%. The AC50 under setting [2] is 25.9 µM [rising, partial curve, poor fit].
